According to patent US20140348834A1:
No constants are given. Whether binding was seen depends on the method and setting. Some results given as binding are weak or reduced against the parent protein; the word gives no strength.

Sequences of proteins named here, by UniProt entry; tags and fusion partners are left off. A change or cut given only in a name is not applied to a line headed by its entry.
UniProt Q16552: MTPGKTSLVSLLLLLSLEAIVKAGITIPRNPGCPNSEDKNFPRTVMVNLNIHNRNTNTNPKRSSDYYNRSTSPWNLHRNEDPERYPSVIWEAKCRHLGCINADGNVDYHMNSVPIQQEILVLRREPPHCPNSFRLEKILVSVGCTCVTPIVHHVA

What was measured:
[1] = target: cynomolgus monkey IL-17A (cynomolgus monkey); assay: ELISA of hybridoma supernatants
human IL-17A (human) = human IL-17A (human) (UniProt Q16552); assay: ELISA of hybridoma supernatants

| binding [1] | binding (human IL-17A (human)) | Binder |
| --- | --- | --- |
| binds | binds | ML109-7D7 (antibody, V domains shown) VH: QVQLQQSGAELVRPGTSVTLSCKASGYRFTDYEIHWIKQTPAQVLEWIGVTDPESGGTLHNPKFDGKATLTADKSSRTAYMELRSLTSEDSAVYYCTRYYKYESFYGMDYWGQGTSVTVSS VL: QIVLTQSPAIMSAFPGEKVTMTCSASSSISYMCWYQQKPGTSPKRWICDTSKLASGVPVRFSGSGSGTSYSLTINSMETEDAATYYCQQRSSYPWTFGGGTKVEIKR |
| binds | binds | ML109-10G9 (antibody, V domains shown) VH: QVQLKESGPALVAPSQSLSFTCTISGFSLSSYGVHWVRQPPGKGLEWLVVIWSDGTTTYNSALKSRLSISKDNSKSQVFLKMNSLQTDDTAMYYCARDGYYIYTMDYWGQGTSVTVSS VL: DVVMTQTPLSLPVSLGDQASISCRSSQSLVHSNGNTYLHWYLQRPGQSPKLLIYKVSNRFSGVPDRFSGSGSGTDFTLKISRVEAEDLGLYFCSQGTHAPLTFGAGTKLELNR |
| binds | binds | ML109-8B12 (antibody, V domains shown) VH: QVQLKESGPGLVAPSQSLSITCTISGFSLTSYGVHWVRQPPGKGLEWLVVIWSDGTTTYNSALKSRLSITRDNSKSQVFLKMNSLQTDDTAIYYCARDSTWDYYYTMDYWGQGTPVTVSS VL: DVVMTQTPLSLPVSLGDQASISCRSSQSLVHSNGNTYLHWYLQKPGQSPKLLIYKVSNRFSGVPDRFSGSGSGTDFTLKISRVEAEDLGVYFCSQSTHVYTFGGGTKLEIKR |
| binds | binds | ML109-1D8 (antibody, V domains shown) VH: QVQLQQSGAELVRPGASVKLSCKASGYTFSDYEMHWVKQTPVHGLEWIGVIHPGNGGTAYNQKFRDKATLTADKSSTTAYMELSSLTSEDSAVYYCIRFLTYEGYFDYWGQGTTLTVSS VL: SIVMTQTPKFLLVSAGDRVTITCKASQSVNNDVAWFQHKPGQSPKLLINYASNRYTGVPDRFTGSGYGTDFTFTISTVQSEDLAIYFCQQDYGSPYTFGGGTTLEIKR |
| binds | binds | ML109-5C5 (antibody, V domains shown) VH: QVQLQQSGAELVRPGASVKLSCKALGYTFTDYEFHWVKQTPVHGLEWIGVIHPGNGGTAYNQNFRDKATLTADKSSSTAYMELSSLTSEDSGVYYCTRFLTYEGYFDYWGQGTALTVSS VL: NIVMTQTPKFLLVSPGDRVTITCKASQSVSIDVGWFQQKPGQSPKLLIYHASNRYTGVPDRFTGSGYGTDFTFTVNTVQAEDLAVYFCQQDYSSPYTFGGGTKLELKR |
